Measurements reported in patent publication JP2004097211A.
These are yes or no findings as the source states them, for the method shown. Some entries that bind do so weakly or less than the wild type.

Biological target: 抗体41S−2の軽鎖
Assay: ELISA screening of hybridomas

B1: i41−7完全抗体 (antibody, V domains shown)
VH: EIQLQQSGPELVRPGASVKVSCKASGYSFTNSIMYWVRQSHGKSLEWIGYIDPYNGGTSYNQKFKGKATLTVDKSSSTAFMHLNSLTSEDSAVYFCARFIVVVADVMDYWGQGTSVTVSS
VL: DIVMTQSHKFMSTSVGDRVSITCKASQDVSTAVAWYQQKPGQSPKLLIYWASTRHTEVPDRFTGSGSGTDYTLTISSVQAEDLALYYCQQHYNTPLTFGAGTKLELKR
binding: binds
